Results: US20090304744A1, “METHODS OF ENHANCING IMMUNE RESPONSE IN THE INTRADERMAL COMPARTMENT AND COMPOUNDS USEFUL THEREOF” (priority 2003, published 2009)
Some entries share one result that the patent states for a list of compounds.

System: swine skin
Conditions: 5% V/V Tween 80, 1 hour post administration, 31 g 1.5 mm needle

With `CCCCCCCC/C=C\CCCCCCCC(=O)OCCOCC(OCCO)C1OCC(OCCO)C1OCCO` (stereo not shown) [Tween 80, polysorbate 80] the draize scores was under 2.
